Test results published in paper doi:10.1101/637801.
No constants are given. Whether binding was seen depends on the method and setting.

By UniProt entry, the sequences of proteins in these tests, tags left out. Residues count along the entry.
UniProt P04977, 35-221: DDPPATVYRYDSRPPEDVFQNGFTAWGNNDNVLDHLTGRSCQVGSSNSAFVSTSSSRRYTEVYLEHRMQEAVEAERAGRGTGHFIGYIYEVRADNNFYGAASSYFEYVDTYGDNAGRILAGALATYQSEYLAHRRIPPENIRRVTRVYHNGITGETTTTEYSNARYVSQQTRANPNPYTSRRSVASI

Molecular target: recombinant pertussis toxin S1 subunit (rPtxS1), N-terminally HIS-tagged, D35-I221 (Bordetella pertussis strain Tohama I) (UniProt P04977)
Experiment: SEC

recombinant pertussis toxin S1 subunit (rPtxS1), N-terminally HIS-tagged, D35-I221 (from UniProt P04977 35-221) (domain or fragment)
binding: no binding (tested: 100 µg of rPtxS1)
